From PMC5186766

Target: GST.pVIII fusion protein (BAdV-3 pVIII) (bovine adenovirus 3 (BAdV-3))
Assay: pull-down; 10 μl Flexi rabbit reticulocyte lysate incubated at 4°C with 10 μl GST beads holding 750 ng GST or GST.pVIII, centrifuged; pellet and supernatant blotted; only the target purified

B1: DDX3, endogenous in rabbit reticulocyte lysate (protein, UniProt G1T336 1-662)
chain: MSHVAVENALGLDQQFAGLDLNSSDNQTGGSTASKGRYIPPHLRNREATKGFYDKDSSGWSSSKDKDAYSSFGSRGDSRGKSSFFSDRGSGSRGRFDDRGRGDYDGIGSRGDRSGFGKFERGGNSRWCDKSDEDDWSKPLPPSERLEQELFSGGNTGINFEKYDDIPVEATGNNCPPHIESFSDVEMGEIIMGNIELTRYTRPTPVQKHAIPIIKEKRDLMACAQTGSGKTAAFLLPILSQIYSDGPGEALRAMKENGRYGRRKQYPISLVLAPTRELAVQIYEEARKFSYRSRVRPCVVYGGADIGQQIRDLERGCHLLVATPGRLVDMMERGKIGLDFCKYLVLDEADRMLDMGFEPQIRRIVEQDTMPPKGVRHTMMFSATFPKEIQMLARDFLDEYIFLAVGRVGSTSENITQKVVWVEESDKRSFLLDLLNATGKDSLTLVFVETKKGADSLEDFLYHEGYACTSIHGDRSQRDREEALHQFRSGKSPILVATAVAARGLDISNVKHVINFDLPSDIEEYVHRIGRTGRVGNLGLATSFFNERNVNITKDLLDLLVEAKQEVPSWLENMAYEHHYKGSSRGRSKSSRFSGGFGARDYRQSSGASSSSFSSSRASSSRSGGGGHGGSRGFGGGGYGGFYNSDGYGGNYNSQGVDWWGN
**Q.** For B1, which binding is on record?
**A.** binds

Results are given in words; binding and its absence hold for the method and conditions named. Binding seen in cells or lysates may run through a third protein. Binding calls can cover weak binding; strength is not graded here.
